Measurements reported in PubChem BioAssay AID504764 (Drosophila RNAi Screening Center, 2011).

Assay: 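Knock-downs that raise or lower a Notch target reporter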 (primary screen)
System: Drosophila Kc167 cells
Knock-down reagent: long dsRNA against Drosophila genes
Timing: about 5 days (4 days dsRNA, then 24 h after transfection)
Conditions: transfection of constitutively active membrane-tethered Notch lacking the extracellular domain, read 24 h later
Read-out: 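Firefly luciferase from an E(spl)m3 reporter with active Notch, plus control-promoter and uninduced reporter wells for normalisation; unnormalised counts, duplicate wells a and b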
Scale: induced reporter light, run 1, well a and induced reporter light, run 1, well b: higher = more light from the Notch target reporter with active Notch; control promoter light, run 1, well a and control promoter light, run 1, well b: higher = more light from the viral control promoter (cell number, transfection, viability); uninduced reporter light, run 1, well a: higher = more light from the Notch target reporter without active Notch
Active means: 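Hit if the duplicate-averaged log2 ratio of induced to control-promoter light gives a plate-wise z beyond ±2, or induced to uninduced beyond ±1.8; weak-control or discordant-duplicate wells dropped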
Meaning of the calls: active = modifier hit (raised or lowered Notch signal); inactive = not a hit
The deposit covers about 22,000 reagents; shown is a random part of those that have a named target and a result. Over the whole deposit, 403 (1.9%) got an active call. 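Unnormalised raw counts per well; ratio z-scores behind the hit calls and whether each hit raises or lowers signal are not deposited.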 Names joined by + are all predicted targets of the reagent. Not stated in the record: the amount of reagent.

predicted target	amplicon	induced reporter light, run 1, well a	induced reporter light, run 1, well b	control promoter light, run 1, well a	control promoter light, run 1, well b	uninduced reporter light, run 1, well a	outcome
CG5510	DRSC15823	1.70e5	1.56e5	2.40e5	2.17e5	14035	inactive
CG4880	DRSC19923	1.11e5	98410	90720	52560	9545	inactive
Obp50a	DRSC22152						inactive
botv	DRSC05949	89495	1.00e5	1.50e5	2.09e5	9895	inactive
RpL28 + snoRNA:Or-CD12	DRSC08293	27365	24990	47955	48690	1920	inactive
ERp44	DRSC20215	1.96e5	1.61e5	2.13e5	2.90e5	10955	inactive
alpha-Est10	DRSC12613	70090	79600	84365	61115	6665	inactive
CG9098	DRSC03136	1.72e5	1.81e5	1.74e5	1.84e5	15140	inactive
CG4679	DRSC06880	94845	77270	1.12e5	88440	7270	inactive
Snoo	DRSC01008	1.08e5	1.37e5	1.33e5	1.51e5	8578	inactive
Snoo	DRSC03004	1.92e5	2.11e5	1.56e5	2.32e5	16100	inactive
Snoo	DRSC03035	1.55e5	1.55e5	98235	1.26e5	21745	inactive
Tob	DRSC20294	97345	95880	1.53e5	1.27e5	7165	inactive
CG7443	DRSC16244	1.04e5	79710	82675	70145	4475	inactive
GstE8	DRSC06678	1.10e5	1.09e5	1.92e5	2.07e5	8865	inactive
CG12835 (retired record)	DRSC06181	1.67e5	1.62e5	2.36e5	2.05e5	14945	inactive
Bem46	DRSC00275	2.52e5	1.78e5	2.98e5	2.37e5	14978	inactive
Nepl7	DRSC02495	1.43e5	1.62e5	1.43e5	1.61e5	11440	inactive
CG15721	DRSC19688	1.27e5	99410	1.33e5	1.13e5	7835	inactive
CG32344	DRSC08578	95755	89160	1.77e5	1.87e5	7535	inactive
